PubChem BioAssay AID504795, Drosophila RNAi Screening Center, 2011
Purpose: 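Knock-downs causing abnormal branching, bundling, swelling or growth of cultured neurons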 (primary screen). Cell system: primary Drosophila neurons and glia. Reagent: long dsRNA against Drosophila genes, 250 ng dsRNA per well. Time to read-out: one week. Detection: 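GFP-labelled neurons and glia imaged live by automated microscope one week after 250 ng dsRNA per well; morphology scored by eye as descriptive phenotype terms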.
Only reagents picked out of a larger screen are listed. 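Every listed dsRNA shows some phenotype; how reagents were selected for listing is not stated.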 Names joined by + are all predicted targets of the reagent.

Silencing of CG5781 [SID104182685] came out at: phenotype seen, replicate 1 = cell fragments present.
Knock-down of Rilpl [SID104198286] gave: phenotype seen, replicate 1 = too many neurite branches.
CG16787 [SID104184074] scored phenotype seen, replicate 1 = too many neurite branches.
With knock-down of Nab2 [SID104193950], the record shows phenotype seen, replicate 1 = cell fragments present.
After knock-down of SCCRO3 [SID104186151], the record shows phenotype seen, replicate 1 = abnormal cell clusters.
Against CG10298 [SID104192314], the values are phenotype seen, replicate 1 = too many neurite branches.
After knock-down of CG34354 [SID104194307], the record shows phenotype seen, replicate 1 = reduced axon outgrowth.
CG34354 [SID104194350] gave phenotype seen, replicate 1 = axon bundles split apart.
With knock-down of CG34354 [SID104195437], the screen gave phenotype seen, replicate 1 = sheet-like cell extensions.
Depletion of Osi4 [SID104191926] came out at: phenotype seen, replicate 1 = abnormal cell clusters.
Depletion of CG13670 [SID104189821] gave: phenotype seen, replicate 1 = axon bundles split apart.
For CG17826 [SID104190081] the deposit lists phenotype seen, replicate 1 = too many neurite branches; phenotype seen, replicate 2 = abnormal cell clusters.
With knock-down of Prosbeta7 [SID104191978], the screen gave phenotype seen, replicate 1 = axon bundles split apart.
With knock-down of hoip [SID104183338], the record shows phenotype seen, replicate 1 = axon bundles split apart.
Silencing of HmgD [SID104184411] gave: phenotype seen, replicate 1 = axon bundles split apart.
Cp16 [SID104190911] gave phenotype seen, replicate 1 = abnormal cell clusters.
Silencing of CG13324 [SID104186153] gave: phenotype seen, replicate 1 = axon bundles split apart.
Knock-down of stum [SID104184060] gave: phenotype seen, replicate 1 = axon bundles split apart.
Silencing of Cisd2 [SID104194696] gave: phenotype seen, replicate 1 = axon bundles split apart.
dmrt11E [SID104199507] scored phenotype seen, replicate 1 = axon bundles split apart.
Silencing of tna [SID104188845] resulted in: phenotype seen, replicate 1 = axon bundles split apart.

Individual results from the entries so far:
CG34354 [SID104195437], phenotype seen, replicate 1: sheet-like cell extensions
Entry of Cp16 [SID104190911] under “phenotype seen, replicate 1”: abnormal cell clusters
Value for CG13670 [SID104189821] under “phenotype seen, replicate 1”: axon bundles split apart
Result for dmrt11E [SID104199507] under “phenotype seen, replicate 1”: axon bundles split apart
Entry for stum [SID104184060] in “phenotype seen, replicate 1”: axon bundles split apart
Value of SCCRO3 [SID104186151] in “phenotype seen, replicate 1”: abnormal cell clusters

The listing continues.
Depletion of mRpS5 [SID104201147] came out at: phenotype seen, replicate 1 = reduced axon outgrowth.
With knock-down of CG6793 [SID104190506], the record shows phenotype seen, replicate 1 = beaded; swollen axons.
Zasp52 [SID104186061] showed phenotype seen, replicate 1 = abnormal cell clusters.
For L (retired record) [SID104185758], the entry reads phenotype seen, replicate 1 = too many neurite branches.
Silencing of CG5157 [SID104190280] came out at: phenotype seen, replicate 1 = reduced axon outgrowth.
Against CG10553 [SID104194046] the deposit lists phenotype seen, replicate 1 = reduced axon outgrowth.
Depletion of CG11504 [SID104194110] resulted in: phenotype seen, replicate 1 = cell fragments present.
With knock-down of CG34309 [SID104194630], the screen gave phenotype seen, replicate 1 = axon bundles split apart.
Hus1-like [SID104192145] scored phenotype seen, replicate 1 = too many neurite branches.
Silencing of CG6280 [SID104186764] resulted in: phenotype seen, replicate 1 = fewer cells.
With knock-down of CG13039 [SID104189712] the results were phenotype seen, replicate 1 = too many neurite branches.
For vtd [SID104200631] the deposit lists phenotype seen, replicate 1 = too many neurite branches.
Knock-down of CG5323 [SID104186721] resulted in: phenotype seen, replicate 1 = beaded; swollen axons.
After knock-down of SH3PX1 [SID104190931] the results were phenotype seen, replicate 1 = cell fragments present.
betaTub85D [SID104196702] scored phenotype seen, replicate 1 = sheet-like cell extensions.
Depletion of CG31802 [SID104182251] gave: phenotype seen, replicate 1 = abnormal cell clusters.
For Vmat [SID104186754] the deposit lists phenotype seen, replicate 1 = sheet-like cell extensions.
Against Ucp4C [SID104182924], the values are phenotype seen, replicate 1 = axon bundles split apart.
For CG6432 [SID104195831], the values are phenotype seen, replicate 1 = beaded; swollen axons.
Silencing of CG34357 [SID104192003] resulted in: phenotype seen, replicate 1 = too many neurite branches; phenotype seen, replicate 2 = abnormal cell clusters.
CG9733 [SID104196341] gave phenotype seen, replicate 1 = cell fragments present.
CG13084 [SID104181980] gave phenotype seen, replicate 1 = abnormal cell clusters.
After knock-down of ND-MWFE [SID104186156], the screen gave phenotype seen, replicate 1 = axon bundles split apart.
For CG7483 [SID104196041], the values are phenotype seen, replicate 1 = reduced axon outgrowth.
CG13992 [SID104182116] showed phenotype seen, replicate 1 = cell fragments present.
After knock-down of FBXO11 [SID104196289], the record shows phenotype seen, replicate 1 = sheet-like cell extensions.
With knock-down of CG42594 [SID104197845] the results were phenotype seen, replicate 1 = too many neurite branches.
msk [SID104191132] gave phenotype seen, replicate 1 = too many neurite branches.
After knock-down of mRpS7 [SID104182606], the record shows phenotype seen, replicate 1 = sheet-like cell extensions.
tub [SID104192181] gave phenotype seen, replicate 1 = axon bundles split apart.
Brca2 [SID104184012] scored phenotype seen, replicate 1 = weaker green signal.
With knock-down of kappaB-Ras + CG30503 [SID104187428], the record shows phenotype seen, replicate 1 = abnormal cell clusters.
For CG17574 [SID104186473] the deposit lists phenotype seen, replicate 1 = sheet-like cell extensions.
Depletion of CG5180 [SID104195523] resulted in: phenotype seen, replicate 1 = sheet-like cell extensions.
BomT2 [SID104186423] gave phenotype seen, replicate 1 = axon bundles split apart.
Knock-down of CG1545 [SID104201250] gave: phenotype seen, replicate 1 = fewer cells.
Against flr [SID104189579], the values are phenotype seen, replicate 1 = axon bundles split apart.
Against CG13042 [SID104189715], the values are phenotype seen, replicate 1 = axon bundles split apart.
Knock-down of CG15155 [SID104182248] resulted in: phenotype seen, replicate 1 = axon bundles split apart; phenotype seen, replicate 2 = abnormal cell clusters.
